# Percent effect of library compounds

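Growth of Mycobacterium tuberculosis over 3 days (7H9 medium with glucose and tyloxapol); the read-out is not stated. Concentration: 50 µM. Direction is inferred from retests: higher values go with more growth inhibition. Size under these conditions: about 69,000 compounds, about 760 of them at 50% or above in at least one test.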

Values are the deposited “Percent Effect”, in %. The controls that fix the scale are not given in the record; negative values are as filed. Compounds were drawn at random from those tested, without regard to their results. Two or more numbers in one place are separate tests of the same structure; such repeats can differ widely.

{"smiles": "CCNC(=O)[C@@H]1CCCN1C1(C(=O)NC)CCCCC1.Cl", "effect": "-6.423 and -24.33"}
{"smiles": "CCOC(C)C(=O)N1CCCN(Cc2csc(CC)n2)CC1", "stereo": "stereo unspecified", "effect": 6.465}
{"smiles": "Cc1ccc(S(=O)(=O)Nc2ccc(=O)n(C)c2)cc1", "effect": -11.67}
{"smiles": "COc1cc2cc3c(nc2cc1OC)OCCN(Cc1ccco1)C3", "effect": 6.118}
{"smiles": "CCCn1nnc(NCc2cc(Br)cc(Br)c2OC)n1", "effect": 39.99}
{"smiles": "Cc1noc(C)c1C(C)NC(=O)N1CCC(NC(=O)c2ccsc2)CC1", "stereo": "stereo unspecified", "effect": "-10.57 and 1.819"}
{"smiles": "O=C(c1c[nH]c2ncccc12)N1CCC(COc2ccccc2)CC1", "effect": -22.14}
{"smiles": "CNS(=O)(=O)c1ccsc1C(=O)OC", "effect": -0.9364}
{"smiles": "CCOCC(=O)N1CCc2c(CN(C)C)nn(C(C)C)c2C1.O=C(O)C(F)(F)F", "effect": "29.29 and -12.32"}
{"smiles": "COc1ccc(Nc2nc3c(C)nn(C)c3c(=O)n2C)c(OC)c1", "effect": -1.676}
{"smiles": "Cc1nc(CNC(C)c2cccc(N3CCCC3=O)c2)cs1.Cl", "stereo": "stereo unspecified", "effect": "-6.757 and -18.87"}
{"smiles": "CCCS(=O)(=O)NCc1nc(C)cc(N2CCCC2)n1", "effect": -1.052}
{"smiles": "CS(=O)(=O)Cc1ccc(C(=O)Nc2ccc3c(c2)C(=O)NC3)cc1", "effect": -8.918}
{"smiles": "Cl.c1nnc(Nc2cncc(C3CCCN3)n2)s1", "stereo": "stereo unspecified", "effect": 27.57}
{"smiles": "O=C(O)C(F)(F)F.[H][C@@]12CN(C(=O)c3ccccc3C)C[C@]1([H])OCCN2c1ncccn1", "effect": -53.53}
{"smiles": "Cc1cnc(C(=O)NCc2ccnc(N(C)C)c2)cn1", "effect": 4.099}
{"smiles": "CC(c1ccccc1Cl)N(C)Cc1nc2c(cnn2C)c(=O)[nH]1", "stereo": "stereo unspecified", "effect": -5.295}
{"smiles": "N#Cc1cccc(NC(=O)CCn2nc(-c3cccs3)oc2=O)c1", "effect": -9.399}
{"smiles": "O=C(O)C(F)(F)F.[H][C@]12CCC[C@@]1(COc1ccccn1)CN(C(=O)c1c(C)noc1C)C2", "effect": 8.022}
{"smiles": "COCCNC(=O)Nc1ccn(-c2cccc(C(F)(F)F)c2)n1", "effect": "7.064 and 19.13"}
{"smiles": "COc1cccc(CN2CCCC(Nc3cccc(F)c3)C2)c1O", "stereo": "stereo unspecified", "effect": 56.03}
{"smiles": "Cc1ccc(CN2CC3(CCN(C(=O)c4cscn4)C3)C2)s1.O=C(O)C(F)(F)F", "effect": -23.69}
{"smiles": "[H][C@@]12CCN(S(=O)(=O)c3ccccc3F)C[C@]1(C(=O)NC)CCO2", "effect": 17.73}
{"smiles": "Cc1cnn(C2CCCN(C(=O)c3ccc(C(N)=O)cn3)C2)c1", "stereo": "stereo unspecified", "effect": 22.77}
{"smiles": "NC(=O)C1=NN2C(=NS(=O)(=O)c3ccccc32)N1", "effect": 0.7563}
{"smiles": "CC1CN(Cc2ccccc2)CCCN1CCS(C)(=O)=O", "stereo": "stereo unspecified", "effect": 17.14}
{"smiles": "CC(=O)NCC(=O)N1Cc2nccn2CC(Cn2cccn2)C1", "stereo": "stereo unspecified", "effect": -27.34}
{"smiles": "COCCC(=O)NCc1ccc(-c2ccccc2C(=O)O)cn1", "effect": -23.34}
{"smiles": "CN1CC2(CCN(CC3CC3)CC2)COc2ccccc2S1(=O)=O.O=C(O)C(F)(F)F", "effect": 6.948}
{"smiles": "CCN1CCN(C[C@@H]2CN(c3ncc(Cl)cc3F)C[C@@H]2CO)CC1", "effect": 36.14}
{"smiles": "O=C(O)C(F)(F)F.O=C(O)C(F)(F)F.[H][C@]12CCN(c3ccc(C)nn3)[C@@]1([H])CC[C@H](COCc1cccnc1)O2", "effect": 10.05}
{"smiles": "Cc1cccc2nc(CN3CCCC3Cn3cccn3)cn12", "stereo": "stereo unspecified", "effect": 10.87}
{"smiles": "OC1(CN2CCOC(Cn3cncn3)C2)CCCCC1", "stereo": "stereo unspecified", "effect": -22.39}
{"smiles": "O=C(O)C(F)(F)F.[H][C@@]12CN(C3CCOCC3)C[C@]1([H])OCCN2Cc1c(C)noc1C", "effect": -12.69}
{"smiles": "Cn1ncc(N2CCC(CNC(=O)[C@@H](N)c3ccccc3)CC2)cc1=O", "effect": -14.47}
{"smiles": "O=C(c1cnc(-c2ccco2)s1)N1CCCC1Cn1cccn1", "stereo": "stereo unspecified", "effect": 12.96}
{"smiles": "CCCNC(=O)CSc1nnc2[nH]c(=O)cc(CC)n12", "effect": "-3.114 and -30.48"}
{"smiles": "O=C(O)C(F)(F)F.[H][C@@]12CCCO[C@]1([H])[C@@H](OC)CN2Cc1ccc(C)o1", "effect": "0.158 and 6.857"}
{"smiles": "CN(C)C(=O)CNC(=O)c1ccc2c(-c3nccs3)noc2c1", "effect": "3.568 and 11.23"}
{"smiles": "FC(F)Oc1ccc(NCc2nc(C3CC3)no2)c(OC(F)F)c1", "effect": "36.04 and 26.67"}
{"smiles": "CN(C)c1cc(C(=O)N2CCCCC2Cn2cccn2)ccn1", "stereo": "stereo unspecified", "effect": 15.03}
{"smiles": "NC(=O)CN(Cc1ccc(Br)cc1)C(=O)c1ccncc1", "effect": -1.928}
{"smiles": "Cc1cc(F)ccc1NS(=O)(=O)c1cc2c(c(C(=O)O)c1)OCCO2", "effect": 16.25}
{"smiles": "CSCC[C@H](NC(=O)N1CCC(Cc2ccccc2)CC1)C(=O)O", "effect": -25.51}
{"smiles": "NC[C@H]1CC[C@H](C(NC(=O)C2CC2)c2ccccn2)CC1", "stereo": "stereo partly specified", "effect": -12.66}
{"smiles": "CO[C@H]1COC[C@@H]1NC(=O)C1(Oc2ccc(Cl)cc2)CCNCC1", "effect": 20.05}
{"smiles": "Cc1cccnc1CCNC(=O)CC1C(=O)NCCN1CCC(C)C", "stereo": "stereo unspecified", "effect": "-1.199 and -42.11"}
{"smiles": "CCNC(=O)NC1CN(Cc2ccccc2N(C)C)C[C@@H]1OC", "stereo": "stereo partly specified", "effect": -5.691}

The last 5 entries again:

With CSCC[C@H](NC(=O)N1CCC(Cc2ccccc2)CC1)C(=O)O the screen gave -25.51%.
With NC[C@H]1CC[C@H](C(NC(=O)C2CC2)c2ccccn2)CC1 (stereo partly specified) the screen gave -12.66%.
With CO[C@H]1COC[C@@H]1NC(=O)C1(Oc2ccc(Cl)cc2)CCNCC1 the screen gave 20.05%.
With Cc1cccnc1CCNC(=O)CC1C(=O)NCCN1CCC(C)C (stereo unspecified) the screen gave -1.199% and -42.11%.
With CCNC(=O)NC1CN(Cc2ccccc2N(C)C)C[C@@H]1OC (stereo partly specified) the screen gave -5.691%.

Source: ChEMBL document CHEMBL3988442, “University of Dundee, Small-Polar-MMV Screening Library” (2021).